Consider 94 sequences from the supplement of paper PMC3334620.

Over roughly 33,000 sequences, “E-score (-0.5 to 0.5)” has its median near -0.016; the highest 2% begin near 0.3. This is one part of the list.

For the test, the target named is T1, Yer184c (UniProt P39961).
T1 sequence: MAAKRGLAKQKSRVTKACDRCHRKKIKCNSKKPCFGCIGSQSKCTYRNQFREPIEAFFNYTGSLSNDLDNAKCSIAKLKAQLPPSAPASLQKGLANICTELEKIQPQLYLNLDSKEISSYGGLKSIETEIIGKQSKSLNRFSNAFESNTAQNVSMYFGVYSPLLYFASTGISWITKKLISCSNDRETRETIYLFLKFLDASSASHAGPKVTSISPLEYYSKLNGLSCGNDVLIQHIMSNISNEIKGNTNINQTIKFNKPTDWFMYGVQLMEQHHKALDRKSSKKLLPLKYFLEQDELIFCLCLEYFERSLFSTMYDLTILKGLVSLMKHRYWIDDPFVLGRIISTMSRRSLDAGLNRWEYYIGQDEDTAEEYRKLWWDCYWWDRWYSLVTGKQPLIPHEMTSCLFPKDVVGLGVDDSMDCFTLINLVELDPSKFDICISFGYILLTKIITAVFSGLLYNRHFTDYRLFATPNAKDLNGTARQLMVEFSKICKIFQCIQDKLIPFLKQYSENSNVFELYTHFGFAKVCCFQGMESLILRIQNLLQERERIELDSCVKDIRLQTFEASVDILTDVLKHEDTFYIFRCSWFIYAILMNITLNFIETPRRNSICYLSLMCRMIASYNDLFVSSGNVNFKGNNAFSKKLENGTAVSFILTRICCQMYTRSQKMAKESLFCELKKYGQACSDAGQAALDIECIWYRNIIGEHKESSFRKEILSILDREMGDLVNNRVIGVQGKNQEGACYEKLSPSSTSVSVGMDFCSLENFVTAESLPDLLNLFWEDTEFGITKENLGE
In words: PBM E-score (8-mer binding enrichment) (E-score (-0.5 to 0.5)); higher = stronger / more preferred TF binding. The following applies: protein concentration: 100 nM; construct: GST-full length. In short, it runs like this:
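Masliner-normalised scans of fluorescent anti-GST signal were the basis for scoring. That signal came from GST-tagged yeast transcription factors applied at about 100-200 nM to double-stranded universal all-10-mer Agilent arrays on fresh or once-stripped slides. Each ungapped eight-base word, pooled with its reverse complement, received an E-score from the Universal PBM Analysis Suite.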
Turning to GCTTTTAA, the “PBM E-score” value is 0.0672.
Consider CGCGTGAC, for which the “PBM E-score” value was -0.107.
The figure for AACAGGAG is -0.164; for GTGGTACA it is -0.013.
With CAACGGGA, the “PBM E-score” value was 0.0915.
The figure for ACCGCTTG is 0.0166.
Consider CGACATCC, for which the “PBM E-score” value amounted to 0.0211.
Next, AGATTTCC: 0.16; AAGGCAAA: -0.0584.
Next, ACGTTCTA: -0.114; CTGGTCTA: -0.212; GCCGACTA: 0.147.
On to AGTAGAAT, for which the “PBM E-score” value stood at 0.0455.
The figure for GCCGGAGA is 0.29.
Turning to CTGCGCTA, the “PBM E-score” value is -0.254.
The figure for CCATGACG is -0.0469.
The figure for AGACGAGC is -0.188.
Take GCCTCCAA: the “PBM E-score” value was -0.11.
The figure for CATCTGAG is -0.194.
Consider AGGGGTGC, for which the “PBM E-score” value is -0.425.
Next, GATAAGCA: -0.03; ACGCAGCA: -0.106; AGGCACAC: -0.255.
The figure for CTCCGCAA is 0.0458; for CCATTAAA it is -0.016.
The figure for AGAAGATA is 0.231; for CGTTTATA it is 0.183; for CACTGGCC it is -0.193.
Consider CCTCGAGG, for which the “PBM E-score” value is -0.112.
Next, CTTCCGGC: 0.343.
CGATACTA: the “PBM E-score” value stood at 0.219.
With ATGATTGC, the “PBM E-score” value came to 0.0363.
With AGCTTCGG, the “PBM E-score” value was 0.233.
Regarding CACTATCG, the “PBM E-score” value worked out at 0.00124.
The figure for TGATGGCA is -0.287; for GAATCGGC it is 0.254; for CAAAGACC it is -0.00103.
Next, GATGGACA: 0.183; CACCCATA: -0.342.
Turning to GTTCAAAA, the “PBM E-score” value is 0.193.
As for CCAGGTTA, the “PBM E-score” value is -0.113.
Consider ATAACTAG, for which the “PBM E-score” value is -0.076.
For the sequence GACGCACA, the “PBM E-score” value came to 0.0276.
As for ACCCTGAG, the “PBM E-score” value was -0.238.
Next, CTATGATC: 0.0909; ACACCTCA: -0.211.
The figure for ACCGGCTC is 0.225; for ACTCTCGG it is 0.344.
Next, TCCGAAAA: 0.264.
As for ACGTGACC, the “PBM E-score” value was -0.184.
Regarding GTGAGAGA, the “PBM E-score” value was -0.0331.
With GTTCCCCA, the “PBM E-score” value is -0.183.
In the case of AACGCGTT, the “PBM E-score” value turned out to be 0.00161.
On to TAGGAACA, for which the “PBM E-score” value was -0.00939.
The figure for GATGTGAA is 0.0854; for GATATACC it is 0.167.
Consider AAACTTCC, for which the “PBM E-score” value is 0.0681.
The figure for GAACTTCC is -0.00938.
The figure for AGATATCA is 0.0377; for TGGTATAA it is 0.0776.
For CATAGCGC, the “PBM E-score” value is 0.0606.
As to CATAACGC, the “PBM E-score” value was -0.0567.
On to AAACGAAA, for which the “PBM E-score” value is 0.189.
Next, TAAGCTCA: -0.166; AAGCTCAG: -0.0536.
For CGTTTGAG, the “PBM E-score” value amounted to 0.0629.
Take CCACACGA: the “PBM E-score” value was -0.193.
In the case of CGCGGTGA, the “PBM E-score” value is -0.0858.
As for GAAGCAAC, the “PBM E-score” value is -0.0026.
Consider ACCCTTAT, for which the “PBM E-score” value was -0.0484.
The figure for CCCCCGGA is -0.164; for AATCGCGC it is 0.0518.
The figure for AAAATTCG is 0.181; for CGGAGACA it is 0.281; for CCATACCC it is -0.139.
For GGCACCGA, the “PBM E-score” value came to 0.0976.
Regarding CTGTGGGC, the “PBM E-score” value is -0.192.
Next, CCATTCCA: -0.0949.
The figure for AGGAGGGC is -0.276; for CTGGGAGC it is -0.127; for AACGCGTC it is 0.0477.
Next, AAAACATC: 0.0496; CAACAGAG: 0.0298.
As to GCGAAATA, the “PBM E-score” value is 0.206.
Regarding ACCGCATC, the “PBM E-score” value was found to be 0.157.
Take CGCGATTC: the “PBM E-score” value was determined as 0.0737.
The figure for AGATCACC is 0.0646.
The figure for ACACTCGT is -0.0589; for CTCATCTA it is -0.0227; for AGTACAGA it is 0.127.
Take TACCGGGA: the “PBM E-score” value came to 0.207.
With AACATTAA, the “PBM E-score” value was found to be 0.125.
With CGAATCAG, the “PBM E-score” value was -0.0793.
The figure for AGCTCACC is -0.0976.
